We go through one substance from PMC8942261.

Amino acid sequences for entries named in this document (tags omitted).
UniProt P03182: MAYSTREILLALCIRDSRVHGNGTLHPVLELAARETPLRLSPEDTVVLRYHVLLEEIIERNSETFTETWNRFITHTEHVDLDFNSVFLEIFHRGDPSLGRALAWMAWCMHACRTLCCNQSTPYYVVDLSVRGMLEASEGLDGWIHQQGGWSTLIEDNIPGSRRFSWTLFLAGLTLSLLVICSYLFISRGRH
UniProt Q5SQI0: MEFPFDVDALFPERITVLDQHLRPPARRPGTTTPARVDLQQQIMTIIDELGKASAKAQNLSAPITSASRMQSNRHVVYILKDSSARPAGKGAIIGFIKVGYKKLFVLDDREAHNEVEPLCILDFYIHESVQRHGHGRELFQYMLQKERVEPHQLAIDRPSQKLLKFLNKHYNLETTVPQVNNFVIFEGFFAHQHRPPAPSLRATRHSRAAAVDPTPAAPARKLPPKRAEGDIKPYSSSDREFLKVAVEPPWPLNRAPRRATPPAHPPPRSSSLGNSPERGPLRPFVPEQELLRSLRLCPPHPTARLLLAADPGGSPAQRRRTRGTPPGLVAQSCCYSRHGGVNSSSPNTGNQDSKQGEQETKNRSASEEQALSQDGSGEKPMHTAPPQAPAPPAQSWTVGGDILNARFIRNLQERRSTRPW

For the assay, the target named is BHRF1-HA (Epstein-Barr virus-encoded BHRF1 protein, HA-tagged) (Epstein-Barr virus) (UniProt P03182). Description: co-IP; HeLa cells co-transfected with BHRF1-HA and GFP-ATAT1 for 24 h; lysed at 4°C in RIPA buffer; BHRF1 precipitated with rabbit anti-HA or ATAT1 with mouse anti-GFP overnight at 4°C; Protein A or G beads, washed three times with RIPA buffer; blots with anti-GFP and anti-HA.

No constants are given. Whether binding was seen depends on the method and setting. Binding seen in cells or lysates may run through a third protein. Some results given as binding are weak or reduced against the parent protein; the word gives no strength.

As for “GFP-ATAT1 (GFP-tagged alpha-tubulin N-acetyltransferase 1) (from UniProt Q5SQI0 1-421) (enzyme)”, the binding entry was “binds”.
